In PMC10890935:
These are yes or no findings as the source states them, for the method shown. Binding seen in cells or lysates may run through a third protein. Here binding means that the protein was enriched with, or labelled near, the bait; the list need not be complete.

Sequences of proteins named here, by UniProt entry; tags and fusion partners are left off. A change or cut given only in a name is not applied to a line headed by its entry.
UniProt A8LHT0: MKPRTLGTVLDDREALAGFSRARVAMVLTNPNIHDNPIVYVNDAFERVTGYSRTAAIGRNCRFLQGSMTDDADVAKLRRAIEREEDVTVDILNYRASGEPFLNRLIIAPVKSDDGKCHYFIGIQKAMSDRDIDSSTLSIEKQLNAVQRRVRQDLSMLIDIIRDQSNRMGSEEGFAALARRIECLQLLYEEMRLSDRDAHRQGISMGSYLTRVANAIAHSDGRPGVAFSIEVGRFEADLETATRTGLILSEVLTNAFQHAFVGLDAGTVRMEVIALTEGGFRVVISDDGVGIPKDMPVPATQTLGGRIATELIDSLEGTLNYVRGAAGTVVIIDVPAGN
UniProt A8LM41: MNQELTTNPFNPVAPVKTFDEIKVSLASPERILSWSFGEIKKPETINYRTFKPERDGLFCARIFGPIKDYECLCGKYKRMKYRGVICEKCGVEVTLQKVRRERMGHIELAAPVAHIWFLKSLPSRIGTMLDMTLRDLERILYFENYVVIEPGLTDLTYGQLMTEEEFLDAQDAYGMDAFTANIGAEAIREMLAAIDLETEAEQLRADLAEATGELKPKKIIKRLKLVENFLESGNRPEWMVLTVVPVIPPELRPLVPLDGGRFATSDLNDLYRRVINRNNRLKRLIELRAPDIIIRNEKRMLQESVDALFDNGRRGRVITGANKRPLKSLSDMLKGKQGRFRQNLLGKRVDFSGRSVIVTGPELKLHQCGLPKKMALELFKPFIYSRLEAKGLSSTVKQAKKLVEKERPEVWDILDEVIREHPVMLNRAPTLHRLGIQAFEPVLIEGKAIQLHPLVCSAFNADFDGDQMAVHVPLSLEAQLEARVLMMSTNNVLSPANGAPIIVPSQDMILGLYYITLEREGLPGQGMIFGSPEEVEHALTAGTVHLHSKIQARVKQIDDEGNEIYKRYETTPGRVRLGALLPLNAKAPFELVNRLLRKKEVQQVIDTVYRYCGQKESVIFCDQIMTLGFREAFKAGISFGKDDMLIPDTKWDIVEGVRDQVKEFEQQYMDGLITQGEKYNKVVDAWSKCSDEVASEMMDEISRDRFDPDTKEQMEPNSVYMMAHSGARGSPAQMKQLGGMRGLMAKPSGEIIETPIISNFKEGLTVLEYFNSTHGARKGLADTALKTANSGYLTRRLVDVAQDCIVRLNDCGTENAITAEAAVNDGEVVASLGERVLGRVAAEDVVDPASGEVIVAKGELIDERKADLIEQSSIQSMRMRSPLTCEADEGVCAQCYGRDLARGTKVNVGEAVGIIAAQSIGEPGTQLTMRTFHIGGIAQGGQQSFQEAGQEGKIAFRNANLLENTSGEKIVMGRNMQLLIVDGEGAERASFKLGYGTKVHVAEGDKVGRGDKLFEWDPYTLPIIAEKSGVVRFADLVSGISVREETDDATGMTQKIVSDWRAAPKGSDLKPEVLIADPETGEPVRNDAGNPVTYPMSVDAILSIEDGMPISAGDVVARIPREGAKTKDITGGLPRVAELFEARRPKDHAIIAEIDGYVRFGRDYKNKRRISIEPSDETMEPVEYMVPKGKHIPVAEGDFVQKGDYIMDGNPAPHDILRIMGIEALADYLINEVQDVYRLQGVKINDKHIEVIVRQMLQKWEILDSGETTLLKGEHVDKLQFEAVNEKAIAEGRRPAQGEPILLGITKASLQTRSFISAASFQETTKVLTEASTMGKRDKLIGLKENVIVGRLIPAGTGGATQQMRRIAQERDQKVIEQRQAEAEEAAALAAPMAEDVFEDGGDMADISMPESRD
UniProt A8LM40: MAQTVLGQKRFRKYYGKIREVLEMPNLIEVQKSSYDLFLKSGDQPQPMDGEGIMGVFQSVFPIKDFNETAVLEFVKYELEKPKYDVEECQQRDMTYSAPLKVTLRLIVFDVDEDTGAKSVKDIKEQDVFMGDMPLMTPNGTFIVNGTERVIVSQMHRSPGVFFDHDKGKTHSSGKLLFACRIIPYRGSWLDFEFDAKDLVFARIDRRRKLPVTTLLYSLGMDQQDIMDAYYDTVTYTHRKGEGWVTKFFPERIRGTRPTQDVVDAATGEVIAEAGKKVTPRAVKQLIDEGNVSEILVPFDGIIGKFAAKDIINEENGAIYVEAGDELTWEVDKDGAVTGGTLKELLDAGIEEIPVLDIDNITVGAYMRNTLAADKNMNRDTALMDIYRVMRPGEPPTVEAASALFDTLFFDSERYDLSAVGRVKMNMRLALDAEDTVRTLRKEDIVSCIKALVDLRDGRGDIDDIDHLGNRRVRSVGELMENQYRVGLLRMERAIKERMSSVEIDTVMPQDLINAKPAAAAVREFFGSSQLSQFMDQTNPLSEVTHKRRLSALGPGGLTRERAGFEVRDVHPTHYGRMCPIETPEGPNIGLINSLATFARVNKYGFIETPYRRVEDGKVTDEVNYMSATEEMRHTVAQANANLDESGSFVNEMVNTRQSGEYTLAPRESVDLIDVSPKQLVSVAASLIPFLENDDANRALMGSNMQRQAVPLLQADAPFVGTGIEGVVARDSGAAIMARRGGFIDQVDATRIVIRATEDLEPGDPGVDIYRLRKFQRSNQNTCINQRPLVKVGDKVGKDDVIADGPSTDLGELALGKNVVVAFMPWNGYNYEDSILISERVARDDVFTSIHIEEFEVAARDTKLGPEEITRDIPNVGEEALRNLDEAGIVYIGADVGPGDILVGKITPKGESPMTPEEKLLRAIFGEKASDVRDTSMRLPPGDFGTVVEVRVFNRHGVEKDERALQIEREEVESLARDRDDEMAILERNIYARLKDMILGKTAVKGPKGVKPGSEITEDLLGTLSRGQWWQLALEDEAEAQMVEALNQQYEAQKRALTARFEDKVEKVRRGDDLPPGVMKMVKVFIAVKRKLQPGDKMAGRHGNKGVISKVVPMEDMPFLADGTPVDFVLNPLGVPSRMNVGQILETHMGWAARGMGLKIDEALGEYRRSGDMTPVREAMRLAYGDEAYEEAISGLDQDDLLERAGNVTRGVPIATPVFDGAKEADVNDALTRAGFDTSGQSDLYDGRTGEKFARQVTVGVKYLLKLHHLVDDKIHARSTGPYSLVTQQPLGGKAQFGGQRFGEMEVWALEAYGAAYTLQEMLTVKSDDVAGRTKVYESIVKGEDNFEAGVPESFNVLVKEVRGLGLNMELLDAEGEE
UniProt A8LR74: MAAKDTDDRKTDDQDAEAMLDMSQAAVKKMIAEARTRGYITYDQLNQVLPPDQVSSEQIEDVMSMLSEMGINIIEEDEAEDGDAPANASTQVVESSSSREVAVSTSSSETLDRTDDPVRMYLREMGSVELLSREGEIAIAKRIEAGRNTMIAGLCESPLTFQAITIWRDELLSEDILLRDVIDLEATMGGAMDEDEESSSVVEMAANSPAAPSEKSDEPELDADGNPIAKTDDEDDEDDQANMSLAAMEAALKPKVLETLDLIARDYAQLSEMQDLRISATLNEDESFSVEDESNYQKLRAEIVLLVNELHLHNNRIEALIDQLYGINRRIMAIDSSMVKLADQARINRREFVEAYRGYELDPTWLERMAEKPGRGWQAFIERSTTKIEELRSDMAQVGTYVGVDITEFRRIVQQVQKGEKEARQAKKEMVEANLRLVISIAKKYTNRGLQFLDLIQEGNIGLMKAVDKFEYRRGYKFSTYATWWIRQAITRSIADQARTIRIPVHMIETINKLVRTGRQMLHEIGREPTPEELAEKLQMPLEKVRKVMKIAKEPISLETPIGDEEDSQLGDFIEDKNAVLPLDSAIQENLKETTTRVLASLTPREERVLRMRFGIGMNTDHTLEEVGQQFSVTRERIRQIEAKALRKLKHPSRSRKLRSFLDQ

Target: Dshi_1135-Strep fusion protein (Dinoroseobacter shibae) (UniProt A8LHT0)
Assay: affinity purification with mass spectrometry; D. shibae DS266 grown in the dark, under blue light (467 nm) or white light; in vivo cross-linking with 0.125% formaldehyde; Dshi_1135-Strep bait on a Strep-Tactin column; elution fractions by nanoLC-MS/MS, compared with the proteome of the cell extract

binding, binds:
RpoC, RNA polymerase subunit beta' (from UniProt A8LM41 1-1415)
RpoB, RNA polymerase subunit beta (from UniProt A8LM40 1-1378)
RpoD, RNA polymerase sigma factor (from UniProt A8LR74 1-664)
